Among all 360,000 compounds or so, about 610 (0.17%) were called active. The inconclusive results got no clear call from the source; some entries with a clear call stand among them for comparison. No stated cut-off is given here; in the data, active means inhibition above about 30%; inconclusive means no clear call, values can overlap the other calls; inactive means below that.
Each molecule was assayed on Botulinum neurotoxin type A light chain protease (Clostridium botulinum A str. ATCC 3502) (assay: blockers of BoNT/A LC substrate cleavage – biochemical, flow cytometry, MLPCN library, primary screen (AID 588499; further: plate controls were buffer without enzyme for full effect and enzyme alone for no effect)). Settings: multiplex microsphere protease substrate cleavage, at 10 µM, active compounds read high.

| SMILES | inhibition |
| --- | --- |
| S=C(NCc1ccccc1)NN1CCOCC1 | inactive: -0.8% |
| CCOC(=O)C(NC(=O)c1ccccc1)=C1C=C(C)OC(C)=C1 | inactive: 0.4% |
| CCOC(=O)CCc1c(C)nc2ncnn2c1C | inconclusive: -3.2% |
| COc1ccccc1-c1cc(C(=O)Nc2c(C)n(C)n(-c3ccccc3)c2=O)no1 | inconclusive: -0.7% |
| CCOc1ccc(N=C(NC#N)SCC(=O)NC2CC2)cc1 | inconclusive: 0.8% |
| Cc1onc(-c2c(Cl)cccc2Cl)c1C(=O)NCc1ccccn1 | inactive: -1% |
| CCCCCn1c(N)c(C(=O)NCCN2CCOCC2)c2nc3ccccc3nc21 | inactive: 9.4% |
| COc1ccc(/C=C/C(=O)Nc2cc(C)on2)cc1 | inactive: -0.5% |
| C=CCn1c(SCC(=O)O)nc2sc(CC)cc2c1=O | inactive: -0.3% |
| CC(OC(=O)CCN1C(=O)C2CC=CCC2C1=O)C(=O)Nc1ccc(F)cc1 (stereo unspecified) | inconclusive: 0.8% |
| Cc1ccc(C)c(C(=O)CSc2nc(N)cc(=O)[nH]2)c1 | inconclusive: -3.1% |
| CCCC1(C)Nc2ccccc2-c2nc3ccccc3n21 (stereo unspecified) | inactive: 0.1% |
| N#CC(C#N)=C1C=C2C=C(N3CCCCCC3)CCC2CC1 (stereo unspecified) | active: 47.8% |
| COc1ccc(OC)c(CN2CCN(C(=O)c3cccc(S(=O)(=O)Nc4ccc(C)cc4)c3)CC2)c1 | inactive: 0.3% |
| C=CCn1c(SCC(=O)Nc2cccc(S(=O)(=O)N(C)c3ccccc3)c2)nnc1C1CC1 | inactive: -0.7% |
| CNC(=O)C1CCN(S(=O)(=O)c2c(C)noc2/C=C/c2cccc(OC)c2)CC1 | inactive: -0.2% |
| CCCOC(=O)CCCN1C(=O)/C(=C2\SC(=S)N(CCCC(=O)OCCC)C2=O)SC1=S | active: 81.4% |
| CCOC(=O)c1cc(C(C)C)sc1NC(=O)COC(=O)c1nccnc1N | inconclusive: 1.5% |
| Cc1ccsc1/C=N/NC(=O)Cc1ccc([N+](=O)[O-])cc1 | inconclusive: 1.7% |
| COC(=O)c1ccc(-c2ccc(/C=N/NC(=O)Cc3nnc(N)s3)o2)cc1 | inconclusive: 3.4% |
| COc1ccc(C(=O)N(CCCO)C(C)C(=O)NC2CCCCC2)cc1OC (stereo unspecified) | inconclusive: 4% |
| c1csc(-c2nc3nc4ccccc4nc3n2Cc2ccc3c(c2)OCO3)c1 | active: 50.9% |
| O=C1/C(=C\c2ccco2)SC(=S)N1Cc1ccccc1 | active: 43.6% |
| CCN(CC)C(=O)CSc1nc2c(sc(=S)n2-c2ccccc2)c(=O)[nH]1 | inactive: 1.1% |
| CCCCNC(=O)CCCCCn1c(=O)[nH]c2cc(OC)c(OC)cc2c1=O | inconclusive: 4.7% |
| Cc1c(C(=O)NNS(=O)(=O)c2ccccc2)sc(=S)n1C | inactive: 1.4% |

Two records picked at random from those above:

| SMILES | inhibition |
| --- | --- |
| CCCOC(=O)CCCN1C(=O)/C(=C2\SC(=S)N(CCCC(=O)OCCC)C2=O)SC1=S | active: 81.4% |
| O=C1/C(=C\c2ccco2)SC(=S)N1Cc1ccccc1 | active: 43.6% |
